These are yes or no findings as the source states them, for the method shown. Some entries that bind do so weakly or less than the wild type.

This passage reports binding results from PMC6981728, “The Mitochondrial Small Heat Shock Protein HSP22 from Pea is a Thermosoluble Chaperone Prone to Co-Precipitate with Unfolding Client Proteins” (International Journal of Molecular Sciences, 2019).

Experiment [1] addresses native HSP22 of pea seed mitochondria (pea (endogenous in pea seed mitochondria)) (UniProt P46254). The experiment can be described thus: SEC; pea seed mitochondrial soluble proteins (7 mg) heated 20 min at 42 °C, centrifuged, separated on the column kept at 42 °C; fractions analysed by Western blot with the anti-HSP22 Cterm antibody.
The target in experiment [2] is recombinant HSP22 (HSP22rec), mature mitochondrial small heat shock protein HSP22 from pea (pea) (UniProt P46254). The experiment can be described thus: SEC; purified HSP22rec at 42 °C; sample heated 20 min at 42 °C and centrifuged before loading; same column and buffer, column kept at 42 °C; calibration at 42 °C; both purified.
In experiment [3] the target is T1, malate dehydrogenase from porcine heart (porcine) (UniProt P00346).
T1 sequence: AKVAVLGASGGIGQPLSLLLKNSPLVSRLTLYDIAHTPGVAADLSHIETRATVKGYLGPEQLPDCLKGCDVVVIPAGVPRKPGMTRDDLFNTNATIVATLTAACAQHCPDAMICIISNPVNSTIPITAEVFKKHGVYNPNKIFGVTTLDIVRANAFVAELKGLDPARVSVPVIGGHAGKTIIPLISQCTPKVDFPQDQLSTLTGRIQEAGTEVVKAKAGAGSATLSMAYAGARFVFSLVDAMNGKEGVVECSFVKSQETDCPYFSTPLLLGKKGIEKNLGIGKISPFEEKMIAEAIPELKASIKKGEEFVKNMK
The experiment is described as follows: co-sedimentation; heat aggregation assay with purified proteins: 8 to 25 µg of proteins in 50 µL MOPS 50 mM pH 7.5, DTT 1 mM, EDTA 1 mM, heated 20 min at 50 °C, 15 min on ice, centrifuged 30 min at 20,000 g; supernatants and pellets by SDS-PAGE; 1:1 mass ratio or molar ratios up to 9:1; both purified.

B1: native HSP22 of pea seed mitochondria (natural protein, UniProt P46254 32-202, looked up)
chain: FNTNAMRQYDQHSDDRNVDVYRHSFPRTRRDDLLLSDVFDPFSPPRSLSQVLNMVDLLTDNPVLSAASRRGWDARETEDALFLRLDMPGLGKEDVKISVEQNTLTIKGEEGAKESEEKEKSGRRFSSRIDLPEKLYKIDVIKAEMKNGVLKVTVPKMKEEERNNVINVKVD
notes: mitochondrial small heat shock protein HSP22 of pea, native protein in the soluble (matrix) extract of mitochondria from 22 h imbibed pea seeds; Detected by Western blot with anti-HSP22 peptide antibodies; source: endogenous, soluble protein extract of pea seed mitochondria
In the case of B1, in experiment [1], the binding result is on record as “binds”.

B2: recombinant HSP22 (HSP22rec), mature mitochondrial small heat shock protein HSP22 from pea (natural protein, UniProt P46254 32-202, looked up)
chain: FNTNAMRQYDQHSDDRNVDVYRHSFPRTRRDDLLLSDVFDPFSPPRSLSQVLNMVDLLTDNPVLSAASRRGWDARETEDALFLRLDMPGLGKEDVKISVEQNTLTIKGEEGAKESEEKEKSGRRFSSRIDLPEKLYKIDVIKAEMKNGVLKVTVPKMKEEERNNVINVKVD
notes: mature HSP22 of pea, amplified from a cDNA encoding the HSP22 precursor (UniProtKB P46254); 19.5 kDa and 170 residues stated; Cloned by NdeI/BamHI into pET3a, so an added initiator methionine is likely (surmise); No tag is mentioned; source: E. coli B834 pLys (pET3a, pET-HSP22), purified (anion exchange HitrapQ, two SEC steps on Superdex 200); also unpurified in soluble extract of the …
Take B2: the binding entry in experiment [2] was “no binding (condition: at 42 °C)”; in experiment [3], “binds”.
